The other results are listed elsewhere or left out. Repeats are few or missing, and single values can be far off.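 Imaging used 1,536-well plates; nuclei positive for cleaved PARP by antibody were divided by total DNA-stained nuclei to yield the apoptosis fraction. Doses for screening kept most cells viable, and cell lines differ markedly in resting and induced cleaved-PARP levels.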
What was measured:
Assay in all cases: cleaved PARP positive nuclei fraction relative to DMSO control; melanoma cells; higher = more apoptosis
Conditions in all cases: library dose: low library concentration; 72 h
[1] = tested on: 501Mel
[2] = tested on: A101D
[3] = tested on: A2058
[4] = tested on: A375
[5] = tested on: C32
[6] = tested on: CBRC013 (line from a melanoma biopsy)
[7] = tested on: CBRC014 (line from a melanoma biopsy)
[8] = tested on: CBRC016 (line from a melanoma biopsy)
[9] = tested on: CBRC017 (line from a melanoma biopsy)
[10] = tested on: CBRC034 (line from a melanoma biopsy)
[11] = tested on: COLO792
[12] = tested on: COLO800
[13] = tested on: COLO829
[14] = tested on: G361
[15] = tested on: IPC-298
[16] = tested on: IST-MEL1
[17] = tested on: LB2518-MEL
[18] = tested on: LOXIMVI
[19] = tested on: CBRC008 (line from a melanoma biopsy)

SMILES | cleaved PARP positive nuclei fraction [1] [%] | cleaved PARP positive nuclei fraction [2] [%] | cleaved PARP positive nuclei fraction [3] [%] | cleaved PARP positive nuclei fraction [4] [%] | cleaved PARP positive nuclei fraction [5] [%] | cleaved PARP positive nuclei fraction [6] [%] | cleaved PARP positive nuclei fraction [7] [%] | cleaved PARP positive nuclei fraction [8] [%] | cleaved PARP positive nuclei fraction [9] [%] | cleaved PARP positive nuclei fraction [10] [%] | cleaved PARP positive nuclei fraction [11] [%] | cleaved PARP positive nuclei fraction [12] [%] | cleaved PARP positive nuclei fraction [13] [%] | cleaved PARP positive nuclei fraction [14] [%] | cleaved PARP positive nuclei fraction [15] [%] | cleaved PARP positive nuclei fraction [16] [%] | cleaved PARP positive nuclei fraction [17] [%] | cleaved PARP positive nuclei fraction [18] [%] | cleaved PARP positive nuclei fraction [19] [%]
Cc1ccc(NC(=O)c2cccc(N(C)C)c2)cc1NC(=O)c1ccc(O)cc1 + O=C1NC(=O)/C(=C/c2ccc(-c3ccc(F)cc3O)o2)S1 [AS252424] (first compound 2 µM, partner dose 1 µM) | 152 | 114 | 92.7 | 238 | 149 | 80.8 | 116 | 61.4 | 114 | 81.5 | 97.4 | 80.3 | 65.3 | 52.5 | 112 | 124 | 88 | 61 | –
C[C@]1(c2nc3c(C(N)=O)cccc3[nH]2)CCCN1 [Veliparib] + Oc1cc(-c2nc(-c3ccccc3)[nH]c2-c2ccncc2)ccc1Cl [L779450] (first compound 1.4 µM, partner dose 0.2 µM) | 83.3 | 159 | 161 | 92.2 | 149 | 372 | 94.7 | 25.5 | 87.8 | 1340 | 88.4 | 74.9 | 109 | 132 | 123 | 238 | 222 | 958 | –
C#Cc1cccc(Nc2ncnc3cc(OCCOC)c(OCCOC)cc23)c1 [erlotinib] + O=S(=O)(c1ccccc1)N(CC(F)(F)F)c1ccc(C(O)(C(F)(F)F)C(F)(F)F)cc1 [T0901317] (first compound 0.8 µM, partner dose 1.4 µM) | 90.3 | 72.7 | 102 | 159 | 44.8 | 885 | 96.8 | 20.7 | 88.1 | 96.4 | 80.3 | 158 | 126 | 48.9 | 69.1 | 90.8 | 166 | 68.3 | –
CC(=O)c1c(C)c2cnc(Nc3ccc(N4CCNCC4)cn3)nc2n(C2CCCC2)c1=O [palbociclib] + O=c1cc(-c2cccc3c2Sc2ccccc2S3)oc(N2CCOCC2)c1 [KU55933] (first compound 0.04 µM, partner dose 1 µM) | 107 | 34.3 | 58.4 | – | 75.3 | – | 104 | 44.3 | 101 | – | 55.3 | 75.7 | 99.3 | 189 | 147 | 139 | 67.5 | 85.4 | 201
O=C(Nc1cccc(Cl)c1)Nc1ncc(CCNc2ncnc3ccsc23)s1 + Oc1cc(-c2nc(-c3ccccc3)[nH]c2-c2ccncc2)ccc1Cl [L779450] (first compound 0.0008 µM, partner dose 0.2 µM) | 288 | 181 | 24.1 | 119 | 69.3 | 130 | 96.9 | 178 | 156 | 46 | 168 | 149 | 81.3 | 68.8 | 124 | 88.8 | 188 | 113 | –
COc1cc(Nc2ncc(F)c(Nc3ccc4c(n3)NC(=O)C(C)(C)O4)n2)cc(OC)c1OC [Tamatinib] + Oc1cc(-c2nc(-c3ccccc3)[nH]c2-c2ccncc2)ccc1Cl [L779450] (first compound 0.4 µM, partner dose 0.2 µM) | 109 | 101 | 81.7 | 816 | 54.6 | 71.4 | 68.2 | 91.7 | 38.4 | 124 | 248 | 177 | 144 | 122 | 44 | 94 | 108 | 81.4 | –
C#Cc1cccc(Nc2ncnc3cc(OCCOC)c(OCCOC)cc23)c1 [erlotinib] + COc1ccc2c(c1)CCC1C2CCC2(C)C(NCCCCCCN3C(=O)C=CC3=O)CCC12 [U73122] (first compound 0.8 µM, partner dose 0.4 µM) | 39.9 | 45.8 | 75 | 94.8 | 44.9 | 78.7 | 92.6 | 73.9 | 100 | 135 | 108 | 78.4 | 94.3 | 65.3 | 207 | 36.9 | 236 | 72.7 | –
Clc1ccc(Nc2nnc(Cc3ccncc3)c3ccccc23)cc1 [vatalanib] + N#Cc1c(O)c2c(-c3ccc(-c4ccccc4O)cc3)csc2[nH]c1=O [A769662] (first compound 2 µM, partner dose 2 µM) | 126 | 25.2 | 136 | – | 80.1 | – | 108 | 60.9 | 86.4 | – | 76.3 | 104 | 40.1 | 91.6 | 96.3 | 189 | 49.5 | 28.9 | 95.4
CO[C@@H]1[C@H](N(C)C(=O)c2ccccc2)C[C@H]2O[C@]1(C)n1c3ccccc3c3c4c(c5c6ccccc6n2c5c31)C(=O)NC4 [Midostaurin] + O=c1cc(-c2cccc3c2Sc2ccccc2S3)oc(N2CCOCC2)c1 [KU55933] (first compound 0.08 µM, partner dose 1 µM) | 148 | 128 | 230 | 142 | 70.5 | 255 | 118 | 105 | 75.9 | 128 | 173 | 108 | 33.8 | 145 | 143 | 1250 | 148 | 34.6 | –
O=C(CCCCCCC(=O)Nc1ccccc1)NO [vorinostat] + O=C(O)C(=O)Nc1sc2c(c1C(=O)O)CCNC2 [TCS401] (first compound 0.08 µM, partner dose 1.66667 µM) | 135 | 218 | 102 | 78.6 | 145 | 40.7 | 86.8 | 58 | 44.8 | 106 | 64 | 52.2 | 183 | 142 | 126 | 123 | 160 | 88.1 | –
CO[C@@H]1[C@H](N(C)C(=O)c2ccccc2)C[C@H]2O[C@]1(C)n1c3ccccc3c3c4c(c5c6ccccc6n2c5c31)C(=O)NC4 [Midostaurin] + COC(=O)c1sccc1S(=O)(=O)Nc1ccc(Nc2ccccc2)cc1OC [GSK0660] (first compound 0.08 µM, partner dose 1 µM) | 66.5 | 22.5 | 107 | 206 | 160 | 103 | 87.8 | 67.2 | 99.6 | 59.7 | 77.1 | 89.3 | 79.2 | 70.2 | 43.3 | 29.7 | 83.5 | 34.8 | –
Cc1ccc(NC(=O)c2cccc(N(C)C)c2)cc1NC(=O)c1ccc(O)cc1 + Cc1cc([N+](=O)[O-])ccc1NS(=O)(=O)c1cc(Cl)ccc1Cl [FH535] (first compound 2 µM, partner dose 1 µM) | 84.3 | 59.7 | 116 | 60.2 | 142 | 34.8 | 189 | 275 | 301 | 295 | 36.4 | 35 | 90.7 | 92 | 158 | 75.4 | 100 | 45 | –
Nc1cccc2c1CN(C1CCC(=O)NC1=O)C2=O (stereo unspecified) [lenalidomide] + O=C1NC(=O)/C(=C/c2ccc(-c3ccc(F)cc3O)o2)S1 [AS252424] (first compound 1 µM, partner dose 1 µM) | 129 | 51.2 | 58.2 | 55.1 | 40.1 | 108 | 90.1 | 71.6 | 76.8 | 188 | 189 | 133 | 146 | 71.4 | 86.1 | 281 | 76.3 | 82.1 | –
CC(=O)c1c(C)c2cnc(Nc3ccc(N4CCNCC4)cn3)nc2n(C2CCCC2)c1=O [palbociclib] + COc1ccc2c(c1)CCC1C2CCC2(C)C(NCCCCCCN3C(=O)C=CC3=O)CCC12 [U73122] (first compound 0.04 µM, partner dose 0.4 µM) | 165 | 21.2 | 103 | – | 53.3 | – | 62.4 | 115 | 180 | – | 110 | 114 | 149 | 102 | 29.3 | 108 | 37.1 | 122 | 38
COc1cc(Nc2ncc(F)c(Nc3ccc4c(n3)NC(=O)C(C)(C)O4)n2)cc(OC)c1OC [Tamatinib] + CCc1ccc(CCOc2ccc(CC3SC(=O)NC3=O)cc2)nc1 [pioglitazone] (first compound 0.4 µM, partner dose 2 µM) | 136 | 140 | 26.1 | 99.4 | 272 | 68.5 | 91.4 | 78.4 | 81.3 | 51.8 | 236 | 144 | 62.8 | 88.1 | 77.1 | 95.3 | 84.7 | 159 | –
Cc1ccc(NC(=O)c2cccc(N(C)C)c2)cc1NC(=O)c1ccc(O)cc1 + COc1ccc(-c2ccc3c(N4CCOCC4)nc(N4C[C@@H](C)O[C@@H](C)C4)nc3n2)cc1CO [KU0063794] (first compound 2 µM, partner dose 0.02 µM) | 116 | 299 | 43.6 | 85.6 | 140 | 194 | 231 | 59.6 | 84.8 | 44.6 | 69 | 147 | 56.3 | 130 | 68.4 | 176 | 180 | 43 | –
Cc1cc(N2CCOCC2)cc2[nH]c(-c3c(NC[C@@H](O)c4cccc(Cl)c4)cc[nH]c3=O)nc12 + COc1ccc2c(c1)CCC1C2CCC2(C)C(NCCCCCCN3C(=O)C=CC3=O)CCC12 [U73122] (first compound 0.2 µM, partner dose 0.4 µM) | 88.7 | 115 | 116 | 258 | 317 | 322 | 227 | 116 | 42.4 | 90.9 | 91 | 241 | 109 | 148 | 55.7 | 84.2 | 172 | 93.9 | –
Nc1cccc2c1CN(C1CCC(=O)NC1=O)C2=O (stereo unspecified) [lenalidomide] + COc1ccc2c(c1)CCC1C2CCC2(C)C(NCCCCCCN3C(=O)C=CC3=O)CCC12 [U73122] (first compound 1 µM, partner dose 0.4 µM) | 91.4 | 50.3 | 145 | 147 | 96.3 | 82.3 | 97.8 | 150 | 78.6 | 41.4 | 99.7 | 41.3 | 102 | 88.1 | 40.5 | 82.6 | 76.8 | 215 | –
Cn1cncc1[C@@](N)(c1ccc(Cl)cc1)c1ccc2c(c1)c(-c1cccc(Cl)c1)cc(=O)n2C [tipifarnib] + O=C1NC(=O)/C(=C/c2ccc(-c3ccc(F)cc3O)o2)S1 [AS252424] (first compound 0.01 µM, partner dose 1 µM) | 83.8 | 104 | 122 | 176 | 66.7 | 232 | 109 | 80.4 | 90.3 | 106 | 117 | 130 | 168 | 174 | 40.1 | 31.6 | 104 | 66.3 | –

Taken from above.
cleaved PARP positive nuclei fraction [12] [%], Cc1cc(N2CCOCC2)cc2[nH]c(-c3c(NC[C@@H](O)c4cccc(Cl)c4)cc[nH]c3=O)nc12 + COc1ccc2c(c1)CCC1C2CCC2(C)C(NCCCCCCN3C(=O)C=CC3=O)CCC12 [U73122] (first compound 0.2 µM, partner dose 0.4 µM) reads 241
cleaved PARP positive nuclei fraction [19] [%], Clc1ccc(Nc2nnc(Cc3ccncc3)c3ccccc23)cc1 [vatalanib] + N#Cc1c(O)c2c(-c3ccc(-c4ccccc4O)cc3)csc2[nH]c1=O [A769662] (first compound 2 µM, partner dose 2 µM) reads 95.4
